From the supplement of paper PMC10849652
This is one part of the list.

The chains behind the UniProt entries cited, without tags or fusion partners. Where a name states a change or a piece, a line headed by the entry shows the natural chain unless it says otherwise.
UniProt P35270: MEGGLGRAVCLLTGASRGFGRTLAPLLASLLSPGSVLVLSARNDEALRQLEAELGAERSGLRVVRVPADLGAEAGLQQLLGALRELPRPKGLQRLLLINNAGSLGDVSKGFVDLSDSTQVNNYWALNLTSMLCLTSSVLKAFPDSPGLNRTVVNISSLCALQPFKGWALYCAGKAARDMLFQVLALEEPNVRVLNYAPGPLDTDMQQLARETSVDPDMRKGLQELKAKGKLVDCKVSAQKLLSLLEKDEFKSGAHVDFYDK
UniProt Q9UQ35: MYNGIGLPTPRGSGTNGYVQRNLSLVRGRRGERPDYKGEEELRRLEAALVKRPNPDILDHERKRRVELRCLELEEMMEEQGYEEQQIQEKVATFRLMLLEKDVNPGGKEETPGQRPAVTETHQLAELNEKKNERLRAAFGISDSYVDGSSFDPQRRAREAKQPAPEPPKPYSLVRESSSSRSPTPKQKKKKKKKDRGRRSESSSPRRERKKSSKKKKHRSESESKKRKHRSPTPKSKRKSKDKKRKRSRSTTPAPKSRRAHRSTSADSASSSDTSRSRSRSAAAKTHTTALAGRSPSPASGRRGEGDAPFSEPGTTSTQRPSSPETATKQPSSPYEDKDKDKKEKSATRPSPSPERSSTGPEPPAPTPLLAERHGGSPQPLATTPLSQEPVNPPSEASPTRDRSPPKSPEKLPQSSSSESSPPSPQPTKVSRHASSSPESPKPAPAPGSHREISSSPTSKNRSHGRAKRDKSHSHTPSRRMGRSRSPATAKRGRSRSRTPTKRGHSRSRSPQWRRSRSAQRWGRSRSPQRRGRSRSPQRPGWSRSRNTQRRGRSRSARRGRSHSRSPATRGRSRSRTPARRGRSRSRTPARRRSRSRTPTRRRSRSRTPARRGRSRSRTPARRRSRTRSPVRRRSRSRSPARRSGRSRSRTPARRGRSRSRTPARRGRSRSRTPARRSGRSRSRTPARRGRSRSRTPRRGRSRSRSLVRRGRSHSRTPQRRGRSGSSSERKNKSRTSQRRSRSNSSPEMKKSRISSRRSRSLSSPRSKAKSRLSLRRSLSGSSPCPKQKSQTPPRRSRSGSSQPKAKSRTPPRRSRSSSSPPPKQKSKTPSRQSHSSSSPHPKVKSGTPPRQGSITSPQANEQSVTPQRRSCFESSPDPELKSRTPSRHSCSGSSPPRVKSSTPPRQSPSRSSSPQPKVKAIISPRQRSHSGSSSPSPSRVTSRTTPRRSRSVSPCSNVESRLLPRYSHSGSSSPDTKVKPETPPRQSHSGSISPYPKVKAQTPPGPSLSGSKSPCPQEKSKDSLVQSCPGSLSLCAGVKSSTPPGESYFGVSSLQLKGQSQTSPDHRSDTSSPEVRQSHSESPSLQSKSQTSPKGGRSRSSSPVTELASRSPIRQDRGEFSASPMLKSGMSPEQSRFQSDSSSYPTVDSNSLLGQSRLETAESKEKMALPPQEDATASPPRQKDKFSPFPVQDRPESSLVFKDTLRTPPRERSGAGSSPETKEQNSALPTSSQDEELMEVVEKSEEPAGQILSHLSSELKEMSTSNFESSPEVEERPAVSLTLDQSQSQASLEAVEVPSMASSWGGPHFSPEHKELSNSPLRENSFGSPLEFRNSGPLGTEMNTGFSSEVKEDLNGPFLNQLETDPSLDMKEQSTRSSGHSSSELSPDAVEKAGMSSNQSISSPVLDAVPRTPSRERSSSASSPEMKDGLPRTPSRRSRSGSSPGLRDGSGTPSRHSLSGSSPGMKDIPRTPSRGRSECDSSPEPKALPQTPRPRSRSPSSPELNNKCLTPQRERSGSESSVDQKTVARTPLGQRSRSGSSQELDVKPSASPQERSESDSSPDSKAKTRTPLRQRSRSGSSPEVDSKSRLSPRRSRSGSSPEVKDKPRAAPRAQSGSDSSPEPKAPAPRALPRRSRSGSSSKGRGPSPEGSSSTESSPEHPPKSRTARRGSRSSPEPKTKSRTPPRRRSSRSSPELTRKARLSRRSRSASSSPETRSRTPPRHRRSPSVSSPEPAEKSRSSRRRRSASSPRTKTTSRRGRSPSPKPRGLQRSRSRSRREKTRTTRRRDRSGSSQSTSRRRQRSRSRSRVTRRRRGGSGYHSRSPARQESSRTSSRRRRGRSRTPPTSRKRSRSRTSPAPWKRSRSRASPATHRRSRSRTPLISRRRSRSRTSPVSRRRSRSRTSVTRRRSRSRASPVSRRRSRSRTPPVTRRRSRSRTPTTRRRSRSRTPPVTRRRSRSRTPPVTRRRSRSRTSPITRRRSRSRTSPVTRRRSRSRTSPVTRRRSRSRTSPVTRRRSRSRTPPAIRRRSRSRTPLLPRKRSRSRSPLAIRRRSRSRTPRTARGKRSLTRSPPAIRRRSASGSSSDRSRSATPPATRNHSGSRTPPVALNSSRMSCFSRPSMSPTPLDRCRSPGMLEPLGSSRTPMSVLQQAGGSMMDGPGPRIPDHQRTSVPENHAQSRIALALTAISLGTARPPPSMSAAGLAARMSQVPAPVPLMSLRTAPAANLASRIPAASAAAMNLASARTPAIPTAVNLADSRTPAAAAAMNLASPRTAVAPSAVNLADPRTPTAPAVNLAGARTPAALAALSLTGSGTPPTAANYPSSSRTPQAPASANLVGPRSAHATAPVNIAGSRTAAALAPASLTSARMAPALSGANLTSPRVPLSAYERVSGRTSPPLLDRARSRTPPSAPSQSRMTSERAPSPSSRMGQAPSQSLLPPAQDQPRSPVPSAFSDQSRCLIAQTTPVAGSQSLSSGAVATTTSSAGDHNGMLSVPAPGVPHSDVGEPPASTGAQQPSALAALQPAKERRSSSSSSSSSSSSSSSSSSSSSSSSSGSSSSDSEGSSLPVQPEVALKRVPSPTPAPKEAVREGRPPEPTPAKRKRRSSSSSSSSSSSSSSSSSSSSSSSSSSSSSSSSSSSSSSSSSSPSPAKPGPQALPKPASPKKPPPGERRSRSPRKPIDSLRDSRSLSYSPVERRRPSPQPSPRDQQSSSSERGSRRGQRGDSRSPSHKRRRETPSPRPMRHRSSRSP
UniProt Q9NYA1, whole entry, looked up: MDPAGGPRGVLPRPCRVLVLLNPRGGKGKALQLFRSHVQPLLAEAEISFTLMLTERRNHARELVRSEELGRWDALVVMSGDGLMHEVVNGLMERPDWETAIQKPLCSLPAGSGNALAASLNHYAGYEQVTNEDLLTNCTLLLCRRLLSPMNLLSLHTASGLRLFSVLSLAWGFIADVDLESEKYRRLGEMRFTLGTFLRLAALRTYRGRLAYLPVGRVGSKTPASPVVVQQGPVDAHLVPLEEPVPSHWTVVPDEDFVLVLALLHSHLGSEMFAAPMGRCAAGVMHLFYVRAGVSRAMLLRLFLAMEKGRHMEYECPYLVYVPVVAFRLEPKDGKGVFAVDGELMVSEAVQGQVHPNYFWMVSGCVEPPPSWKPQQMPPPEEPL
UniProt P51571: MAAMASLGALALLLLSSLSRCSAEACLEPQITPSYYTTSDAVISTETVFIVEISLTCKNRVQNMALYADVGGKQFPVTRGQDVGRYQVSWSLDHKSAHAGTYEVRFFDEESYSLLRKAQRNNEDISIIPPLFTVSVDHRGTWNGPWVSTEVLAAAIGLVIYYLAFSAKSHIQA
UniProt O95630, whole entry, looked up: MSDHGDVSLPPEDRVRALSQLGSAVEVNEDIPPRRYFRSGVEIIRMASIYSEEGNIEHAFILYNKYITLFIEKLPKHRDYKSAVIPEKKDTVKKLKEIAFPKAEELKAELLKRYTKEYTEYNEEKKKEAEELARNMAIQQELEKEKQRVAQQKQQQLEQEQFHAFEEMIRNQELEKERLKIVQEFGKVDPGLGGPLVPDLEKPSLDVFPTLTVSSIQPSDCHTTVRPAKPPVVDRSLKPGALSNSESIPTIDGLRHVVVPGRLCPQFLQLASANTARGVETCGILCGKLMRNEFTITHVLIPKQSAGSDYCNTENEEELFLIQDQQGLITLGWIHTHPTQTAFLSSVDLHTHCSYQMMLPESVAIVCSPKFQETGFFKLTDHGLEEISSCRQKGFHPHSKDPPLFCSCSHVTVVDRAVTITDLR
UniProt O43805: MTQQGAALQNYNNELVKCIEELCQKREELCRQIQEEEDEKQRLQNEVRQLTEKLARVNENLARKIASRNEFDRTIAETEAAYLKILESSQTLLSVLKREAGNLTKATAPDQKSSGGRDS
UniProt O95772: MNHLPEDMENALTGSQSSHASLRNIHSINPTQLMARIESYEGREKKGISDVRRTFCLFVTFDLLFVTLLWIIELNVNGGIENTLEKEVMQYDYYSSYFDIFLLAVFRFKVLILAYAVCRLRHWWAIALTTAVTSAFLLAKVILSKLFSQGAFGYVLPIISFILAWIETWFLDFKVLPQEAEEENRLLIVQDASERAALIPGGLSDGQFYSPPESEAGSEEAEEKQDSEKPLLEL
UniProt Q9UNL2: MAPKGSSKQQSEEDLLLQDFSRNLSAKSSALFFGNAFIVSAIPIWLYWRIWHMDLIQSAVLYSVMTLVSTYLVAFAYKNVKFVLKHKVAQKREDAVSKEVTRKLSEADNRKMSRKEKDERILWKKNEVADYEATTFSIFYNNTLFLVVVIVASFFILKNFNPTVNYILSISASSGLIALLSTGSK
UniProt Q9UBP0: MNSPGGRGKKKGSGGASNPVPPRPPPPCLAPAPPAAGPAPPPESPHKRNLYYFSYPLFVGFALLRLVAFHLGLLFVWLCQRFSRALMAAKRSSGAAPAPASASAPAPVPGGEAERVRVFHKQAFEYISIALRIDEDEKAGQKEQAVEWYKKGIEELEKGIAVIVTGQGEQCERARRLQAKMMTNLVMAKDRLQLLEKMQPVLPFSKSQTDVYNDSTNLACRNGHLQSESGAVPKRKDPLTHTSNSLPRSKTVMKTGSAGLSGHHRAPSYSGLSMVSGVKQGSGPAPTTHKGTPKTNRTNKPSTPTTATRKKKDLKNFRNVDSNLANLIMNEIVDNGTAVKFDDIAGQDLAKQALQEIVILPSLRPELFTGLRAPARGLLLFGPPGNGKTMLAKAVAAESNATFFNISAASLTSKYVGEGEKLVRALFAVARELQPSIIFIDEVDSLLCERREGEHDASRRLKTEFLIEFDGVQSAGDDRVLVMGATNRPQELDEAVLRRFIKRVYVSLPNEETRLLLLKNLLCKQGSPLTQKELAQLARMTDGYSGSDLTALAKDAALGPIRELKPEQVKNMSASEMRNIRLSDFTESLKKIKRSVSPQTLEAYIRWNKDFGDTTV
UniProt P50502: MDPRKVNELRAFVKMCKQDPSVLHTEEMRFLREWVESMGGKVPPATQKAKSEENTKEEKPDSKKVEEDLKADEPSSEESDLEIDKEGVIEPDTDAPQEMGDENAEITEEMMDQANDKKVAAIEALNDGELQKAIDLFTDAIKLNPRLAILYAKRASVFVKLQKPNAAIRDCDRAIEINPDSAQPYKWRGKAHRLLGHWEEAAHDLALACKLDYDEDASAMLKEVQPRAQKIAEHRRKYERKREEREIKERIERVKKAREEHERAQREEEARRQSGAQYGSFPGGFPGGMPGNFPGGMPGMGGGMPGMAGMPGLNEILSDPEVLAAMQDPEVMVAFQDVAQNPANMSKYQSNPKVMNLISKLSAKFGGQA
UniProt P15907: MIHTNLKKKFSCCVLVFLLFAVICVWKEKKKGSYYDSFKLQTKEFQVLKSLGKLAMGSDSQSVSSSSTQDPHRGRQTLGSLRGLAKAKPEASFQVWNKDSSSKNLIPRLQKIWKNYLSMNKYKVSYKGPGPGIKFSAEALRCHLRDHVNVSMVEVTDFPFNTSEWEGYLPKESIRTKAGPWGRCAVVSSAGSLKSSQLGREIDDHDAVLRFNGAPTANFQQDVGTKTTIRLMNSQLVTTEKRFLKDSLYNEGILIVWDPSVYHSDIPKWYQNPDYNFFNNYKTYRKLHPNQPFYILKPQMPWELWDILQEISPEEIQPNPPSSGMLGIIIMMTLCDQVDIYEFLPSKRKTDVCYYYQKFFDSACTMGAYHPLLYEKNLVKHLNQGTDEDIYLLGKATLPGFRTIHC
UniProt Q92783: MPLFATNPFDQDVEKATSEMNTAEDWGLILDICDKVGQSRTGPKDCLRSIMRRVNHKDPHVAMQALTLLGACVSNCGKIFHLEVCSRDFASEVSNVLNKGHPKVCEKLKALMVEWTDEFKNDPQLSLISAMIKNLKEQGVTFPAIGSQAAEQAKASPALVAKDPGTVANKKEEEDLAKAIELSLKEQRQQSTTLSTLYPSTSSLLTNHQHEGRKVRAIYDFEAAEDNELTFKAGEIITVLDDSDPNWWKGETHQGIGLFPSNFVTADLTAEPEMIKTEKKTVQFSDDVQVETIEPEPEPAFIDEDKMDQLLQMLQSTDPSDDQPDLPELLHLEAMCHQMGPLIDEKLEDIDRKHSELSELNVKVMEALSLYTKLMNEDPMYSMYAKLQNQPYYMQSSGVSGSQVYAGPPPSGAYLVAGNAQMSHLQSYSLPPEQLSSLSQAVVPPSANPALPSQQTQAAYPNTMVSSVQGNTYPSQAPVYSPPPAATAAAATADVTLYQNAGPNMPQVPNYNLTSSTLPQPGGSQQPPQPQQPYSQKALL

Experiments:
Assay in all cases: log2 fold change, soluble protein after heating vs DMSO (PISA); higher = thermal stabilisation; K562 lysate, 10 uM; active = over 0.2 and 3.5 SD of the protein, either way, in both replicates (recomputed)
[1] = compound: C1=CC=C(C=C1)[C@H](COC2=CC3=C(C=C2)NC(=O)N3)NC(=O)C4=CC=CN(C4=O)CC5=CC(=C(C=C5)F)F
Summary of the method: (§1)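 Thermal stability, expressed as log-two fold change relative to solvent controls, is given from duplicates. Crude K562 extract in PBS pH 7.4 with 1 mM MgCl2, at 1 mg/mL protein, was treated with 10 μM compound for 30 min and heated in aliquots for 3 min across 48°C-58°C. After pooling, adjustment to 0.5% NP-40 at 4°C and centrifugation at 21,000xg for 90 min, supernatant protein was measured by TMTpro 16plex LC-MS/MS with channel sums equalised.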

[2] = compound: CC1=C(SC2=C1C(=N[C@H](C3=NN=C(N32)C)CC(=O)N)C4=CC=C(C=C4)Cl)C
Summary of the method: as §1

[3] = compound: CC1=C2C(=CC=C1)N=C(N(C2=O)C3=CC=CC=C3C)CN4C=NC5=C(N=CN=C54)N
Summary of the method: as §1

[4] = compound: Cc1sc2c(c1C)C(c1ccc(Cl)cc1)=N[C@@H](CC(=O)OC(C)(C)C)c1nnc(C)n1-2
Summary of the method: as §1

[5] = compound: c1ccc([C@@H]2C[C@H]2NC2CCNCC2)cc1
Summary of the method: as §1

Measured: log2 fold change

SPG11 (UniProt Q96JI7)
inactive: [1] -0.22 | [2] -0.253 | [3] 0.015 | [4] 0.067 | [5] 0.006

ST3GAL2 (UniProt Q16842)
inactive: [1] -0.034 | [2] 0.093 | [3] -0.035 | [4] -0.077 | [5] -0.012

SRP19 (UniProt P09132)
inactive: [1] -0.081 | [2] -0.035 | [3] 0.004 | [4] 0.05 | [5] -0.022

SRGN (UniProt P10124)
inactive: [1] 0.101 | [2] 0.14 | [3] 0.063 | [4] -0.03 | [5] -0.196

SPTBN4 (UniProt Q9H254)
inactive: [1] -0.073 | [2] 0.037 | [3] -0.044 | [4] -0.063 | [5] -0.038

SRR (UniProt Q9GZT4)
inactive: [1] 0.054 | [2] 0.096 | [3] 0.008 | [4] 0.187 | [5] -0.042

SRPK2 isoform 2 (UniProt P78362)
inactive: [1] 0.004 | [2] 0.013 | [3] -0.049 | [4] -0.043 | [5] -0.078

SPATA5L1 (UniProt Q9BVQ7)
inactive: [1] -0.019 | [2] 0.036 | [3] 0.006 | [4] -0.007 | [5] -0.039

SPG7 (UniProt Q9UQ90)
inactive: [1] -0.001 | [2] 0.004 | [3] 0.072 | [4] -0.042 | [5] 0.012

SRSF1 (UniProt Q07955)
inactive: [1] 0.01 | [2] 0.021 | [3] 0.006 | [4] 0.015 | [5] 0.049

Two successive records from above, quoted:
SPATA5L1 (UniProt Q9BVQ7)
inactive: [1] -0.019 | [2] 0.036 | [3] 0.006 | [4] -0.007 | [5] -0.039

SPG7 (UniProt Q9UQ90)
inactive: [1] -0.001 | [2] 0.004 | [3] 0.072 | [4] -0.042 | [5] 0.012

Following part.

SREBF2 (UniProt Q12772)
inactive: [1] -0.061 | [2] 0.039 | [3] 0.163 | [4] -0.086 | [5] -0.041

SPATS2 (UniProt Q86XZ4)
inactive: [1] 0.042 | [2] -0.035 | [3] 0.061 | [4] -0.014 | [5] -0.07

SRSF10 (UniProt O75494)
inactive: [1] 0 | [2] 0.01 | [3] 0.005 | [4] 0.018 | [5] -0.022

SPTAN1 isoform 3 (UniProt Q13813)
inactive: [1] -0.03 | [2] -0.001 | [3] 0.028

SPN (UniProt P16150)
inactive: [1] 0.041 | [2] -0.02 | [3] -0.014 | [4] -0.04 | [5] -0.034

STAU2 (UniProt Q9NUL3)
inactive: [1] 0.007 | [2] 0.003 | [3] 0.065 | [4] -0.002 | [5] 0.007

SPTB isoform 2 (UniProt P11277)
inactive: [1] -0.019 | [2] -0.054 | [3] 0.04 | [4] 0.005 | [5] 0.026

SPTBN1 (UniProt Q01082)
inactive: [1] -0.022 | [2] 0.024 | [3] -0.006 | [4] 0.001 | [5] 0.021

STAM2 (UniProt O75886)
inactive: [1] 0.039 | [2] 0.023 | [3] -0.018 | [4] -0.028 | [5] -0.001

SPR (UniProt P35270)
inactive: [1] 0.113 | [2] -0.031 | [3] -0.027 | [4] -0.034 | [5] -0.067

SRRM2 (UniProt Q9UQ35)
inactive: [1] 0.068 | [2] -0.005 | [3] -0.008 | [4] 0.006 | [5] -0.023

SSB (UniProt E7ERC4)
inactive: [1] -0.137 | [2] 0.12 | [3] 0.186 | [4] -0.105 | [5] 0.444

SPTA1 (UniProt P02549)
inactive: [1] -0.031 | [2] -0.002 | [3] 0.025 | [4] 0.019 | [5] 0.042

SRD5A3 (UniProt Q9H8P0)
inactive: [1] -0.06 | [2] -0.035 | [3] -0.129 | [4] 0.195

SPHK1 isoform 2 (UniProt Q9NYA1)
inactive: [1] -0.014 | [2] -0.034 | [3] -0.038 | [4] -0.003 | [5] 0.092

SPCS2 (UniProt Q15005)
inactive: [1] -0.018 | [2] -0.037 | [3] 0 | [4] -0.001 | [5] 0.087

SPIRE1 (UniProt Q08AE8)
inactive: [1] -0.008 | [2] 0.031 | [3] -0.006 | [4] -0.053 | [5] -0.212

SRA1 (UniProt Q9HD15)
inactive: [1] -0.007 | [2] 0.022 | [3] -0.013 | [4] -0.088 | [5] -0.025

SSR4 (UniProt P51571)
inactive: [1] -0.027 | [2] 0.003 | [3] -0.004 | [4] -0.001 | [5] 0.015

STAMBP (UniProt O95630)
inactive: [1] 0.002 | [2] -0.021 | [3] 0.012 | [4] 0.011 | [5] 0.036

SRSF8 (UniProt Q9BRL6)
inactive: [1] 0.012 | [2] -0.009 | [3] -0.002 | [4] -0.042 | [5] -0.074

SSNA1 (UniProt O43805)
inactive: [1] 0.034 | [2] -0.038 | [3] 0.009 | [4] -0.129 | [5] -0.075

SPRED2 (UniProt Q7Z698)
inactive: [1] 0.116 | [2] 0.067

SPINDOC (UniProt Q9BUA3)
inactive: [1] -0.004 | [2] 0.025 | [3] -0.096 | [4] 0.028 | [5] -0.058

SRPK1 (UniProt Q96SB4)
inactive: [1] -0.002 | [2] -0.023 | [3] 0.004 | [4] -0.015 | [5] -0.025

STARD3NL (UniProt O95772)
inactive: [1] 0.005 | [2] 0.015 | [3] -0.016 | [4] -0.015 | [5] -0.004

SSR3 isoform 2 (UniProt Q9UNL2)
inactive: [1] 0.023 | [2] 0.026 | [3] -0.108 | [4] -0.112 | [5] 0.178

SPRYD7 (UniProt Q5W111)
inactive: [1] 0.005 | [2] 0.057 | [3] -0.001 | [4] 0.063 | [5] -0.006

ST7 (UniProt Q9NRC1)
inactive: [1] -0.069 | [2] -0.041 | [3] 0.041 | [4] -0.097 | [5] -0.007

SPAST (UniProt Q9UBP0)
inactive: [1] -0.017 | [2] 0.005 | [3] 0.095 | [4] 0.006 | [5] 0.017

SQLE (UniProt Q14534)
inactive: [1] 0.044 | [2] 0.054 | [3] -0.099 | [4] 0.012 | [5] 0.031

ST6GALNAC1 (UniProt Q9NSC7)
inactive: [1] 0.085 | [2] -0.055 | [3] 0.066 | [4] 0.057 | [5] 0.044

SSBP1 (UniProt Q04837)
inactive: [1] 0.046 | [2] -0.008 | [3] 0.003 | [4] -0.04 | [5] -0.036

ST3GAL4 isoform 4 (UniProt Q11206)
inactive: [1] -0.352 | [2] 0.197 | [3] -0.181 | [4] -0.081 | [5] 0.329

SSBP3 (UniProt Q9BWW4)
inactive: [1] -0.113 | [2] -0.031 | [3] 0.062 | [4] -0.06 | [5] -0.005

SPATA5 (UniProt Q8NB90)
inactive: [1] -0.024 | [2] -0.005 | [3] 0.026 | [4] 0.008 | [5] 0.02

Pulled one by one from the list above, 2 records:
ST6GALNAC1 (UniProt Q9NSC7)
inactive: [1] 0.085 | [2] -0.055 | [3] 0.066 | [4] 0.057 | [5] 0.044

SPRYD7 (UniProt Q5W111)
inactive: [1] 0.005 | [2] 0.057 | [3] -0.001 | [4] 0.063 | [5] -0.006

The listing continues.

ST13 (UniProt P50502)
inactive: [1] 0.021 | [2] 0.029 | [3] -0.019 | [4] 0.009 | [5] 0.023

STIL isoform 2 (UniProt Q15468)
inactive: [1] 0.014 | [2] -0.037 | [3] 0.069 | [4] -0.046 | [5] -0.049

ST6GAL1 (UniProt P15907)
inactive: [1] 0.049 | [2] -0.018 | [3] 0.024 | [4] -0.027 | [5] 0.034

STEAP3 isoform 2 (UniProt Q658P3)
inactive: [1] 0.025 | [2] -0.028 | [3] 0.079 | [4] 0.114 | [5] -0.055

STAM (UniProt Q92783)
inactive: [1] 0.028 | [2] 0.019 | [3] -0.002 | [4] 0.015 | [5] 0.016

SRCAP (UniProt Q6ZRS2)
inactive: [1] 0.057 | [2] -0.04 | [3] 0.049 | [4] 0.004 | [5] 0.042

SPIN1 (UniProt Q9Y657)
inactive: [1] -0.179 | [2] -0.271 | [3] 0.142 | [4] -0.194 | [5] 0.091
